From paper doi:10.1101/594382
Read-outs that look alike come from different tables or passages of the source. These are yes or no findings as the source states them, for the method shown. Some entries that bind do so weakly or less than the wild type.

The chains behind the UniProt entries cited, without tags or fusion partners.
UniProt P94400, whole entry: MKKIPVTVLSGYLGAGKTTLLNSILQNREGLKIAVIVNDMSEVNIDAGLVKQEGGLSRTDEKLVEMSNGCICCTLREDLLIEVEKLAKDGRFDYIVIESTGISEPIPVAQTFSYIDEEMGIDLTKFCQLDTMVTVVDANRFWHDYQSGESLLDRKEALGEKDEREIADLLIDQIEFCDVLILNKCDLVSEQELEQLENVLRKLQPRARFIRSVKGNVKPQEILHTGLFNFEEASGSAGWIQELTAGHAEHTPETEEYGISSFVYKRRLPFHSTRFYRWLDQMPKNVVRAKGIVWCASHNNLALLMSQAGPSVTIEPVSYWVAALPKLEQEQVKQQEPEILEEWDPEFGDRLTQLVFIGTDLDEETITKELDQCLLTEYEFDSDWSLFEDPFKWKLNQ

Legend:
Assay in all cases: two-hybrid
[1] = molecular target: T1, Bacillus subtilis FolE2, zinc-independent GTP cyclohydrolase (B. subtilis) (UniProt P94398)
T1 sequence: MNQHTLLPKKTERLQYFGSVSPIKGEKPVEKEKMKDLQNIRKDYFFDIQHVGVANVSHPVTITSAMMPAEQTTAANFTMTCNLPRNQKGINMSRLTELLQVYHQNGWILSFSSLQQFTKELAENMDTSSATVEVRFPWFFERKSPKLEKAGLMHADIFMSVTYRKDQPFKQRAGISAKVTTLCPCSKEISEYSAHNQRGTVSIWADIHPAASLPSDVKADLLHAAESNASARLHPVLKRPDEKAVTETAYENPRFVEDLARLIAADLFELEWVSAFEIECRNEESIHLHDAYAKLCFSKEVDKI

[2] = molecular target: T2, Bacillus subtilis FolE, zinc dependent GTP cyclohydrolase (B. subtilis) (UniProt P19465)
T2 sequence: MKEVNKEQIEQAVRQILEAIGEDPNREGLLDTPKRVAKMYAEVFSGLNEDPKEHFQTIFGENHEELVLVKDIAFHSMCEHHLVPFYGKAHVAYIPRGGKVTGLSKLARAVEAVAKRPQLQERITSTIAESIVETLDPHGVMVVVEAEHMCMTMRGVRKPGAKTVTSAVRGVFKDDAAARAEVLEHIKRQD

[3] = molecular target: T2, Bacillus subtilis FolE, zinc dependent GTP cyclohydrolase (B. subtilis); remark: listed apart in the source
[4] = molecular target: T1, Bacillus subtilis FolE2, zinc-independent GTP cyclohydrolase (B. subtilis); remark: listed apart in the source

In the case of “Bacillus subtilis ZagA (ZTP activated GTPase A), zinc metallochaperone (from UniProt P94400 1-397)”, the binding [1] is reported as “no binding”, the binding [2] is reported as “binds” and the binding [3] is reported as “binds”. For the same substance, the binding [4] was “no binding”.
